Experimental data taken from article doi:10.1101/2025.04.21.649502.
No constants are given. Whether binding was seen depends on the method and setting. In cells and extracts the contact can be indirect. Where a sequence is shown, tags or fusion partners need not be part of it.

Molecular target: T1, Flag/HA-ZC3H7B (Zinc Finger CCCH-Type Containing 7B) (human) (UniProt Q9UGR2)
T1 sequence: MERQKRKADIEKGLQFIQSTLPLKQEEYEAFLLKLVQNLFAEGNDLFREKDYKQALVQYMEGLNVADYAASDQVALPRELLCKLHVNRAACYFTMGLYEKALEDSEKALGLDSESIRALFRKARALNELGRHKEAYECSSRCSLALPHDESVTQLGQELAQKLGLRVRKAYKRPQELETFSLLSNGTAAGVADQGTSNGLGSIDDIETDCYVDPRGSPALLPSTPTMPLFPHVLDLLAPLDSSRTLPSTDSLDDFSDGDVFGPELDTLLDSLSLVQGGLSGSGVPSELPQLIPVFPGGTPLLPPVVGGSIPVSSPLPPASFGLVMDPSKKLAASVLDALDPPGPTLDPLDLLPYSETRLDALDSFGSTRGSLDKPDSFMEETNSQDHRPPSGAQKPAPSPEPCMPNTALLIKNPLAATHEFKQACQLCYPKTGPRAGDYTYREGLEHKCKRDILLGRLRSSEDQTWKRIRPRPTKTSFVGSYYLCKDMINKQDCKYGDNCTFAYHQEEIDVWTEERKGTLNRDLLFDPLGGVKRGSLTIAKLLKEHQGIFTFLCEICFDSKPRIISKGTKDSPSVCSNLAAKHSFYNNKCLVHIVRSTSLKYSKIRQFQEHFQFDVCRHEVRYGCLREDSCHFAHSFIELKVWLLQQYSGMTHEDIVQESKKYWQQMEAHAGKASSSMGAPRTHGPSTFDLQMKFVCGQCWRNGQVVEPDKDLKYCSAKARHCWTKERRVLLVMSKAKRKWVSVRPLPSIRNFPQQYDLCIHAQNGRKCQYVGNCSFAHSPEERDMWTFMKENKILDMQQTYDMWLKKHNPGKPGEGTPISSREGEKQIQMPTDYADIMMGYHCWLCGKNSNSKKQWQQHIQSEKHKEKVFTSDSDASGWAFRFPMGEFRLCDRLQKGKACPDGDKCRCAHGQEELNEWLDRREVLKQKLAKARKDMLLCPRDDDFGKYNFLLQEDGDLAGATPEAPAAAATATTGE
Assay: co-IP

In the case of eEF1A (human (endogenous in HEK293)), the binding is reported as “no binding”.
